The list shows a part of the results. The data scatter; read single values as rough.

Amino acid sequences for entries named in this document (tags omitted). A change or cut given only in a name is not applied to a line headed by its entry. Residues count along the entry.
UniProt P29084: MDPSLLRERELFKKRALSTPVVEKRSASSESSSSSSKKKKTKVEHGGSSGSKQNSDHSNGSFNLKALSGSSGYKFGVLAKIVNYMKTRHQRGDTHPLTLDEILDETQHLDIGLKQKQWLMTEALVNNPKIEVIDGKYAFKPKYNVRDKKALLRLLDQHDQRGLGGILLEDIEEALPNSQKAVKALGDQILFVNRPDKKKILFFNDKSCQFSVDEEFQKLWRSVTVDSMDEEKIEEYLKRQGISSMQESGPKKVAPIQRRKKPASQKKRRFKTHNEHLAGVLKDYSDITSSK
UniProt P52657, whole entry, looked up: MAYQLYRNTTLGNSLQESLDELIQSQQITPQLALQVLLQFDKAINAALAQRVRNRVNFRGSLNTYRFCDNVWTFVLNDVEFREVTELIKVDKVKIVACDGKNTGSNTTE
UniProt Q96FZ2: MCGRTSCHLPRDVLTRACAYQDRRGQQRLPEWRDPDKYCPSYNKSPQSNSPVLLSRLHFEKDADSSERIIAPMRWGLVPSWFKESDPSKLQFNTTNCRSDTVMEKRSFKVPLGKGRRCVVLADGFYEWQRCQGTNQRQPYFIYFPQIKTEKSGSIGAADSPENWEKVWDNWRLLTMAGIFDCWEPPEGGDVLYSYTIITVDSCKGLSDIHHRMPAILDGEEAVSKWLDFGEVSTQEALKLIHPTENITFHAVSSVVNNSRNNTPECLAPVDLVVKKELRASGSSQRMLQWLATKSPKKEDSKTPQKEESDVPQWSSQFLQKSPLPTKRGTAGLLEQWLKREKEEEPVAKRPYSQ
UniProt Q9P2P5: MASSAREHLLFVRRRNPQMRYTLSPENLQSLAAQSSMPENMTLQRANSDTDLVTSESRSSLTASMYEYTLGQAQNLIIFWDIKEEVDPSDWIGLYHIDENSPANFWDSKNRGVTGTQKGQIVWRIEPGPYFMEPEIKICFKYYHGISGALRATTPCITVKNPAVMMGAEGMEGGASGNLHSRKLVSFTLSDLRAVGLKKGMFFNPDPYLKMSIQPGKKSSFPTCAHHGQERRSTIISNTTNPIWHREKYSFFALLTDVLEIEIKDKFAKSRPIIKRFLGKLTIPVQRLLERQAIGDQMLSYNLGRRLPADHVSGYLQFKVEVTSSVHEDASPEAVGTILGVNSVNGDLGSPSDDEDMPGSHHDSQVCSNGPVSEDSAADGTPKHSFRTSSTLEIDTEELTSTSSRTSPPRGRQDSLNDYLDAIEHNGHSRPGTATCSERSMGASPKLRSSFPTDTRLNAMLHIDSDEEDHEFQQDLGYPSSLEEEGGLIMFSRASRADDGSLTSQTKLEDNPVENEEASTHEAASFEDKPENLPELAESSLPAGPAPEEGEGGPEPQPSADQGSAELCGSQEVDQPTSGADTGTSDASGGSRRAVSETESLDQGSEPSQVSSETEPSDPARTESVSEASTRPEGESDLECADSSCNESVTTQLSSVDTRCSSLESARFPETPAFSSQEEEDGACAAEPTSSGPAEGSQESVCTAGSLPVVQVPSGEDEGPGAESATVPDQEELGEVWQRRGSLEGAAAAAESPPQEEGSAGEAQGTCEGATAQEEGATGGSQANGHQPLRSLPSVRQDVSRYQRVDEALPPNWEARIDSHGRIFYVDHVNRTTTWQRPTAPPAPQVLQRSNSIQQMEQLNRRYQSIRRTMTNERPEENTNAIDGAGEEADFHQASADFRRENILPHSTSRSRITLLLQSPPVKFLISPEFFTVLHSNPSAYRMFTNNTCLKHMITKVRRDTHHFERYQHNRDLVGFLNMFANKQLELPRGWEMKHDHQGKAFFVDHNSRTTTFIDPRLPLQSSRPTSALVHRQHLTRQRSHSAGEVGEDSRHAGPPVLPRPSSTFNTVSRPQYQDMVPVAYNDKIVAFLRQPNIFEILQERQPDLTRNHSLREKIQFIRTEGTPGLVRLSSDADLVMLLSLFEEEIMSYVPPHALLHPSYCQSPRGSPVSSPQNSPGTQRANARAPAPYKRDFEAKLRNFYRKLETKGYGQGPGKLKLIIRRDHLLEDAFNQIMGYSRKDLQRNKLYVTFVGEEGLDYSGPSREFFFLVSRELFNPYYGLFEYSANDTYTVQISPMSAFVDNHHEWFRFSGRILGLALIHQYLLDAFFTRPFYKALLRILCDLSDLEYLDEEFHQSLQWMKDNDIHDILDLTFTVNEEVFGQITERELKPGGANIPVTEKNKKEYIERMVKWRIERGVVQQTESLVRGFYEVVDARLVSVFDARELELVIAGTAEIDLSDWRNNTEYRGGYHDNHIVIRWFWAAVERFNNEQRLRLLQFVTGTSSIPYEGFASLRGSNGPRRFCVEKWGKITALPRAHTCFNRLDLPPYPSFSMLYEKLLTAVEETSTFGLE
UniProt Q7Z4H7: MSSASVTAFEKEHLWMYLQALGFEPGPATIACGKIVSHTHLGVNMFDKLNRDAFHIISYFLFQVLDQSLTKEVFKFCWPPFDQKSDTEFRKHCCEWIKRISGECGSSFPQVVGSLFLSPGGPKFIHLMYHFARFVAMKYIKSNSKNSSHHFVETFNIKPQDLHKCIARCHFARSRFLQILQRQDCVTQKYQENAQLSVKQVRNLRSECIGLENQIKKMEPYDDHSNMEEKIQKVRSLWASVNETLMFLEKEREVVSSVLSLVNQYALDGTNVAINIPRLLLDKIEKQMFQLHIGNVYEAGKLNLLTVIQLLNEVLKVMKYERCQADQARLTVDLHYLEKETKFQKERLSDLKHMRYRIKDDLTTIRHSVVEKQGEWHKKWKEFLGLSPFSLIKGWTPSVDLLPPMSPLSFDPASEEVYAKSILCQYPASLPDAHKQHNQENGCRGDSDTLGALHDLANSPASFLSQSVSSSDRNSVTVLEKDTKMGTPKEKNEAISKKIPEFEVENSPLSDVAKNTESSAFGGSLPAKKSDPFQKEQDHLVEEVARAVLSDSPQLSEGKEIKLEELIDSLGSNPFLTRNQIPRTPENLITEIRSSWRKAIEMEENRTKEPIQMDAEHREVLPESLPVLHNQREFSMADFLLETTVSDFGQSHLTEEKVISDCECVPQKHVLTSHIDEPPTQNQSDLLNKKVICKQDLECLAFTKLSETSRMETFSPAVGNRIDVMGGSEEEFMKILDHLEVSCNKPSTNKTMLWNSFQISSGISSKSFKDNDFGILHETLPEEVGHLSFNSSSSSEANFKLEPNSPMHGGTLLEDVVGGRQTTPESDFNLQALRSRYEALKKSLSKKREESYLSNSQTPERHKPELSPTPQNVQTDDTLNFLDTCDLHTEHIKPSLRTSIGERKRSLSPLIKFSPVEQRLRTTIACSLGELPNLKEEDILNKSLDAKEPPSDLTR
UniProt Q9UKN8: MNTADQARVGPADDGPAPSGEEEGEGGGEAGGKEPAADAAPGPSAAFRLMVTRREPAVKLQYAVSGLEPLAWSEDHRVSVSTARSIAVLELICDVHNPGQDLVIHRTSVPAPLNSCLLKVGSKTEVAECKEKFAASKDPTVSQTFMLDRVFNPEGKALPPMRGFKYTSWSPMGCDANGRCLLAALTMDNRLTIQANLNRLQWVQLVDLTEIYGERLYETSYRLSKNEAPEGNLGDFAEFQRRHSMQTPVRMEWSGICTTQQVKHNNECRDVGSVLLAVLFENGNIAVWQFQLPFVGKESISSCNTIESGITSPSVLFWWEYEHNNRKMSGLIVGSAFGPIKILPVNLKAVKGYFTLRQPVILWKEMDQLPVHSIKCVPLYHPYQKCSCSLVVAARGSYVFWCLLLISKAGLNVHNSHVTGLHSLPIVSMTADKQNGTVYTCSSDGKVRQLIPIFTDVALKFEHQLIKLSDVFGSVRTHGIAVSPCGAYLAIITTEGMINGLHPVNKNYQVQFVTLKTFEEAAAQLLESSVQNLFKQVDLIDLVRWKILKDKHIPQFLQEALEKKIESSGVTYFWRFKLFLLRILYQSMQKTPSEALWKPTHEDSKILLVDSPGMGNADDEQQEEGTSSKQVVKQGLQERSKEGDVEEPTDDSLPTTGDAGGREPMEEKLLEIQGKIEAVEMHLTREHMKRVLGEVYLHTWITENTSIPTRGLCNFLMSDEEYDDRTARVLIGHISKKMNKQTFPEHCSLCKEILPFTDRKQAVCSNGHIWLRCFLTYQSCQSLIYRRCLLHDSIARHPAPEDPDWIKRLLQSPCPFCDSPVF
UniProt O43824: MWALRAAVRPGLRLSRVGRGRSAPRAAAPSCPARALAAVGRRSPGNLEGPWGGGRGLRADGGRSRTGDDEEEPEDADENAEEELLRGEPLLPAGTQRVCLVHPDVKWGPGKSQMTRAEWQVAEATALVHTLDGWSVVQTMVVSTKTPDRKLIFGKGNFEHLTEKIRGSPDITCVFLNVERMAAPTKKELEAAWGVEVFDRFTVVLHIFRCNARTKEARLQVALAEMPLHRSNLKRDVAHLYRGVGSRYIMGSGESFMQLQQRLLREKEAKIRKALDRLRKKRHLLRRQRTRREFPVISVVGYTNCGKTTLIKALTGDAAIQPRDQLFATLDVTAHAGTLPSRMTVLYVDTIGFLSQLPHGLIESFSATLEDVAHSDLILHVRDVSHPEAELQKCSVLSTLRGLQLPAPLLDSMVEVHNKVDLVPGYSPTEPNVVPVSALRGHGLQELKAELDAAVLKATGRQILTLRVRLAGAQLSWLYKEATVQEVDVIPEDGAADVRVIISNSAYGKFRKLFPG
UniProt P51858, 106-126: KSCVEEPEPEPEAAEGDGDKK
UniProt Q15751, 1427-1448: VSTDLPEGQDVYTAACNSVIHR
UniProt Q6AI08: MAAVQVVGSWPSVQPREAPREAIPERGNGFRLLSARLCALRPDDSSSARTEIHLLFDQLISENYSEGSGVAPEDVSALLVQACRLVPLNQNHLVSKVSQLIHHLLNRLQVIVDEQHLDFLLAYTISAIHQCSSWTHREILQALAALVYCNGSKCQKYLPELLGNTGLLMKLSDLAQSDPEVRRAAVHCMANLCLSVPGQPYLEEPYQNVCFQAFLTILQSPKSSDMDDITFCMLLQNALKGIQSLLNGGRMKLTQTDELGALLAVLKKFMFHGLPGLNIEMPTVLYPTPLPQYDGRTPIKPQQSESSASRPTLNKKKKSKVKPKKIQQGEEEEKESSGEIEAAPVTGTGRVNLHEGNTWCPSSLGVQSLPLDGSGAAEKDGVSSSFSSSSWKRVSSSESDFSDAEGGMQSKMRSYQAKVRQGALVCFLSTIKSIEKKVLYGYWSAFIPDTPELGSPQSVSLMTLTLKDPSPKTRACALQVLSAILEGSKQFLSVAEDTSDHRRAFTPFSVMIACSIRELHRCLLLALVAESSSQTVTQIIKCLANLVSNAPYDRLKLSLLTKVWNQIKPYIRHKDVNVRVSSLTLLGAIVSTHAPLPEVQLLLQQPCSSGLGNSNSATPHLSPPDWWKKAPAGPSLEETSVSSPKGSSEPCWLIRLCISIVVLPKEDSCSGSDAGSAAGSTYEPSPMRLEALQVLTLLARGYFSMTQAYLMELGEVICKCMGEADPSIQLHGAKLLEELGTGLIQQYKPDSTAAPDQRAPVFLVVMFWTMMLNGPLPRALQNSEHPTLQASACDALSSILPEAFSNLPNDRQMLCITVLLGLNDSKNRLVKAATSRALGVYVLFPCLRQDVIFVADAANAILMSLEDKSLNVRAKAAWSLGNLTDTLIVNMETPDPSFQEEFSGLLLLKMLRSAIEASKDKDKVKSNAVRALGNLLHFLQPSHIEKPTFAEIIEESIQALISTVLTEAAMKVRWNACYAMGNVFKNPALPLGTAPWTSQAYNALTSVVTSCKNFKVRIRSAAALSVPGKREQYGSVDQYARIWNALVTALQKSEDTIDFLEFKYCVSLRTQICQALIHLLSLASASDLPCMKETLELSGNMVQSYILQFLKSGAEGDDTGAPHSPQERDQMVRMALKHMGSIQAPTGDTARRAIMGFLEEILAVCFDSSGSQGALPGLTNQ
UniProt Q9NYZ3: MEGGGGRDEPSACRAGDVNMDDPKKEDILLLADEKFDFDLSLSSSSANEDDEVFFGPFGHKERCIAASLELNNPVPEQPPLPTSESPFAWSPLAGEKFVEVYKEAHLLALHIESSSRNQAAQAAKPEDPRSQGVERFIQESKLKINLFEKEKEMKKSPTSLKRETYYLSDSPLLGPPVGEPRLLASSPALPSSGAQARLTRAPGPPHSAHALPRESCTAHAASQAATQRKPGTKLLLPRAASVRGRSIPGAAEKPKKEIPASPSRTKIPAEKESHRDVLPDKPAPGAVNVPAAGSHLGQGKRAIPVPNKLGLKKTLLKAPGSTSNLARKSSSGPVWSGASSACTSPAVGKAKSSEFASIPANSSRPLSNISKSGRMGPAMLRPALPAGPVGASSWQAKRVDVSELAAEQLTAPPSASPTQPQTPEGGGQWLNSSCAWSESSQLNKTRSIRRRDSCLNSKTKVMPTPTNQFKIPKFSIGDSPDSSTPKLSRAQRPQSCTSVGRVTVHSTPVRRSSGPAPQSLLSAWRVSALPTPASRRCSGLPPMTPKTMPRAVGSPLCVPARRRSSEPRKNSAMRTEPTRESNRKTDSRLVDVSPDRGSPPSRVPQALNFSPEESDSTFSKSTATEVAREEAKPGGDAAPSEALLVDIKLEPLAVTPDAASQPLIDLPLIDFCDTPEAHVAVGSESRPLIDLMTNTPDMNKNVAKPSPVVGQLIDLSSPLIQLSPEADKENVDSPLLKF

Compound in this assay: ClCC(=O)N[C@@H]1CCCc2ccccc12
As to the kind of experiment: log2 mean competition ratio of IA-DTB cysteine labelling (DMSO/compound) (log2 ratio); higher = stronger cysteine engagement by compound. Particulars: 50 µM; treatment time: 4 h; cell line lysate: HEK293T. On the procedure: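 IA-DTB competitive cysteine chemoproteomics in HEK293T RIPA lysate. Lysates were treated with compound 29 or 30 at 50 or 200 µM for 4 h, then IA-DTB (500 µM, 1 h), trypsin-digested, NeutrAvidin-enriched and analysed by diaPASEF. Competition ratio = intensity DMSO / intensity compound (n=4 treated, n=64 DMSO); binding: mean log2 CR ≥ 1 and p ≤ 0.05 plus QC filters. Target is the cysteine site.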
GTF2E2 C208 (UniProt P29084): the “log2 mean competition ratio” value is 0.331.
HBS1L C529 (UniProt Q9Y450): the “log2 mean competition ratio” value was -0.245.
The same measure for GTPBP4 C174 (UniProt Q9BZE4): 0.398; for GTF2A2 C98 (UniProt P52657): 0.0719.
The same measure for HIRA C1007 (UniProt P54198): 0.166; for GTF3C2 C828 (UniProt Q8WUA4): -0.132; for HASPIN C762 (UniProt Q8TF76): -0.217.
The same measure for HMCES C39 (UniProt Q96FZ2): -0.0291; for HECW2 C224 (UniProt Q9P2P5): 0.927.
Regarding HAUS6 C208 (UniProt Q7Z4H7), the “log2 mean competition ratio” value is -0.16.
The same measure for HELLS C346 (UniProt Q9NRZ9): 0.334.
To GTF3C2 C503 (UniProt Q8WUA4) belongs 0.245; to GTF3C4 C764 (UniProt Q9UKN8), 0.516.
Take GUF1 C338 (UniProt Q8N442): the “log2 mean competition ratio” value was -0.105.
To HDGFL2 C631 (UniProt Q7Z4V5) belongs 0.367.
GTPBP6 C99 (UniProt O43824): the “log2 mean competition ratio” value worked out at 0.0443.
For HOXA11 C200, the “log2 mean competition ratio” value was -0.12.
The same measure for HDGF C108 (UniProt P51858): -0.0348.
The same measure for GTF3C1 C1471 (UniProt Q12789): -0.0927; for HERC1 C1442 (UniProt Q15751): -0.206; for HEATR6 C720 (UniProt Q6AI08): 0.0919.
To HADHA C322 (UniProt P40939) belongs -0.357; to HLTF C942 (UniProt Q14527), 0.194; to HECTD4 C3836, -0.248.
As for HASPIN C219 (UniProt Q8TF76), the “log2 mean competition ratio” value was 0.0147.
The same measure for GTSE1 C478 (UniProt Q9NYZ3): 0.33; for GTPBP4 C336 (UniProt Q9BZE4): -0.0662.
